Laboratory results taken from patent US12264175B2, “Compositions and methods for capping RNAS” (Verve Therapeutics, Inc., priority 2020, dated 2025).
Some entries share one result that the patent states for a list of compounds.

By UniProt entry, the sequences of proteins in these tests, tags left out. Where a name states a change or a piece, a line headed by the entry shows the natural chain unless it says otherwise.
UniProt P00573: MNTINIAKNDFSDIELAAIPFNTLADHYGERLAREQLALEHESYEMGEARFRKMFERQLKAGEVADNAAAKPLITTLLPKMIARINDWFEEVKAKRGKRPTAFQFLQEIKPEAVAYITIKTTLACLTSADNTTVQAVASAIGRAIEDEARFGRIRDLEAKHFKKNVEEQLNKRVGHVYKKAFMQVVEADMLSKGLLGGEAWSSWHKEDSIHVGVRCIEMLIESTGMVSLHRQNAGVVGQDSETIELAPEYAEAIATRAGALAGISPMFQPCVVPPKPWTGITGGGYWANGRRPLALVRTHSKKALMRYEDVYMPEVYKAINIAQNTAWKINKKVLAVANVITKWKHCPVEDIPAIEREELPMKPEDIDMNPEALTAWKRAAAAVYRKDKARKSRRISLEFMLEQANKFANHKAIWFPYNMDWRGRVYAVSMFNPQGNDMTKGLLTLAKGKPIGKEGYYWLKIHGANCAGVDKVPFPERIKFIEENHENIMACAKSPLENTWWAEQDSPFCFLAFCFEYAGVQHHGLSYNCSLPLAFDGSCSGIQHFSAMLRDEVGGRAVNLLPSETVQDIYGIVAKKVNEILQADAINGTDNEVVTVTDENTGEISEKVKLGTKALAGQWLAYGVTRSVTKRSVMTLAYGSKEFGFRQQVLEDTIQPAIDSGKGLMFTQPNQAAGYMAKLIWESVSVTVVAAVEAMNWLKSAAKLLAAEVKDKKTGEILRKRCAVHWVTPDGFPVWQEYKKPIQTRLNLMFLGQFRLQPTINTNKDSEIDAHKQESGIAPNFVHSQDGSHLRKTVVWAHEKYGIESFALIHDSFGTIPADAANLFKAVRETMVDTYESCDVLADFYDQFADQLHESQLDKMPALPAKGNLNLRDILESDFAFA

molecular target: T7 RNA polymerase (Escherichia phage T7, UniProt P00573); assay: mRNA capping efficiency at adjusted 5′ end initiator-to-NTP molar ratio; format: biochemical; conditions: initiator-to-NTP ratio of 1:1 and below; not tested
Excerpt: The amount of capped mRNA produced in an IVT reaction is directly proportional to the ratio of cap to NTPs in the reaction mixture (Stepinski, J. et al., RNA. 2006, 7, 1486-1495). The 5′ end initiator-to-NTP ratio in an IVT reaction impacts the amount of mRNA that becomes capped primarily because cap can compete with NTPs for insertion at the 5′ end of mRNA. A typical initiator-to-NTP ratio for a dinucleotide cap structure is 4:1 and a typical molar initiator-to-NTP ratio for a trinucleotide cap structure is 1:1; where NTP represents either GTP, ATP, CTP, UTP, or modified NTPs such as N1-methyl pseudouridine. At both a 4:1 ratio for a dinucleotide cap and 1:1 ratio for a trinucleotide cap, the resultant mRNA will have a mixture of transcripts of which at least 80% are capped at the 5′ end and up to 20% are uncapped, this is also described as a capping efficiency of 80%. Capping efficiency is the measured amount of capped mRNA divided by the total amount of capped mRNA plus uncapped mRNA. Therefore, trinucleotide caps can be considered more efficient capping compounds than dinucleotide caps since less input cap is required to produce a final mRNA product that contains a similar amount of capped 5′ ends. The ability of trinucleotide caps to produce a high (>90%) capping efficiency at a lower initiator-to-NTP ratio than dinucleotide caps, in some instances, can be attributed to the increased affinity of a trinucleotide cap for the DNA template. In some cases, the optimal cap-to-NTP ratio may vary with the composition of the cap structure, wherein modification of cap structures may affect capping efficiency. […] Similarly, trinucleotide initiators, 1007e, 1007i, 1037a, 1112a, 1141a, 3107a, 3212a, 1007c, 1112c, 3107c, 3212c, 5214 and other trinucleotide cap structures described in Table 1 with phosphorothioate linkage between the first two initiating nucleotides are expected to also have similar capping efficiencies as compared to compound 1002a based on the observations seen in the previous example.
Phosphorothioate modification of the triphosphate bridge in a cap structure is not expected to reduce capping efficiency and production of mRNA containing triphosphate bridge-modified dinucleotide caps is well known in the art. […] Similarly, trinucleotide cap structures with triphosphate bridge phosphorothioate modifications described in Table 1 are expected to have similar capping efficiencies as compared to 5′ end initiator, 1107a, based on the observations seen in the previous example.
The amount of capped mRNA relative to the total amount of mRNA that is present, i.e. capping efficiency, can be measured by numerous methods well known in the art. One of such methods is digestion of the mRNA into small fragments followed by chromatographic separation and detection. In some cases, digestion is performed with sequence-specific RNA or DNA nucleases or cleavage enzymes. Chromatographic separation and measurement of capped RNA is typically performed by HPLC, FPLC, thin layer chromatography, gel electrophoresis, or capillary gel electrophoresis techniques. Identity of capped RNA and uncapped mRNA is verified by mass spectrometry.

| Structure (SMILES) | capping efficiency (may also produce) [%] |
| --- | --- |
| COC1C(OP(=O)(O)OCC2OC(n3cnc4c(=O)[nH]c(N)nc43)C(O)C2OP(=O)(O)OCC2OC(n3cnc4c(=O)[nH]c(N)nc43)C(O)C2O)C(COP(=O)(O)OP(=O)([O-])OP(=O)(O)OCC2OC(n3c[n+](C)c4c(=O)[nH]cnc43)C(O)C2O)OC1n1cnc2c(N)ncnc21 (centres unmarked) [compound 5201, m^7I(ppp)Am(p)G(p)G] | > 90 |
| COC1C(OP(=O)(O)OCC2OC(n3cnc4c(=O)[nH]c(N)nc43)C(O)C2OP(=O)(O)OCC2OC(n3cnc4c(=O)[nH]c(N)nc43)C(O)C2O)C(COP(=O)(O)OP(=O)([O-])OP(=O)(O)OCC2OC(n3c[n+](C)c4cncnc43)C(O)C2O)OC1n1cnc2c(N)ncnc21 (centres unmarked) [compound 5202, m^7E(ppp)Am(p)G(p)G] | > 90 |
| COC1C(OP([O-])(=S)OCC2OC(n3cnc4c(=O)[nH]c(N)nc43)C(O)C2OP(=O)(O)OCC2OC(n3cnc4c(=O)[nH]c(N)nc43)C(O)C2O)C(COP(=O)(O)OP(=O)(O)OP(=O)(O)OCC2OC(n3c[n+](C)c4c(=O)[nH]c(N)nc43)C(O)C2O)OC1n1cnc2c(N)ncnc21 (centres unmarked) [compound 5203, m^7G(ppp)Am(ps)G(p)G] | > 90 |
| COC1C(OP([O-])(=S)OCC2OC(n3cnc4c(=O)[nH]c(N)nc43)C(O)C2OP(O)(=S)OCC2OC(n3cnc4c(=O)[nH]c(N)nc43)C(O)C2O)C(COP(=O)(O)OP(=O)(O)OP(=O)(O)OCC2OC(n3c[n+](C)c4c(=O)[nH]c(N)nc43)C(O)C2O)OC1n1cnc2c(N)ncnc21 (centres unmarked) [compound 5204, m^7G(ppp)Am(ps)G(ps)G] | > 90 |
| COC1C(OP([O-])(=S)OCC2OC(n3cnc4c(=O)[nH]c(N)nc43)C(O)C2OP(=O)(O)OCC2OC(n3cnc4c(=O)[nH]c(N)nc43)C(O)C2O)C(COP(=O)(O)OP(=O)(O)OP(=O)(O)OCC2OC(n3c[n+](C)c4c(=O)[nH]cnc43)C(O)C2O)OC1n1cnc2c(N)ncnc21 (centres unmarked) [compound 5205, m^7I(ppp)Am(ps)G(p)G] | > 90 |
| COC1C(OP([O-])(=S)OCC2OC(n3cnc4c(=O)[nH]c(N)nc43)C(O)C2OP(=O)(O)OCC2OC(n3cnc4c(=O)[nH]c(N)nc43)C(O)C2O)C(COP(=O)(O)OP(=O)(O)OP(=O)(O)OCC2OC(n3c[n+](C)c4cncnc43)C(O)C2O)OC1n1cnc2c(N)ncnc21 (centres unmarked) [compound 5206, m^7E(ppp)Am(ps)G(p)G] | > 90 |
| COC1C(OP(=O)(O)OCC2OC(n3cnc4c(=O)[nH]c(N)nc43)C(O)C2OP(=O)(O)OCC2OC(n3cnc4c(=O)[nH]c(N)nc43)C(O)C2O)C(COP(=O)(O)OP(=O)([S-])OP(=O)(O)OCC2OC(n3c[n+](C)c4c(=O)[nH]c(N)nc43)C(O)C2O)OC1n1cnc2c(N)ncnc21 (centres unmarked) [compound 5207, m^7G(ppsp)Am(p)G(p)G] | > 90 |
| COC1C(OP(O)(=S)OCC2OC(n3cnc4c(=O)[nH]c(N)nc43)C(O)C2OP(=O)(O)OCC2OC(n3cnc4c(=O)[nH]c(N)nc43)C(O)C2O)C(COP(=O)(O)OP(=S)([S-])OP(=O)(O)OCC2OC(n3c[n+](C)c4c(=O)[nH]c(N)nc43)C(O)C2O)OC1n1cnc2c(N)ncnc21 (centres unmarked) [compound 5208, m^7G(ppssp)Am(p)G(p)G] | > 90 |
| COC1C(OP([O-])(=S)OCC2OC(n3cnc4c(=O)[nH]c(N)nc43)C(O)C2OP(=O)(O)OCC2OC(n3cnc4c(=O)[nH]c(N)nc43)C(O)C2O)C(COP(=O)(O)OP(=O)(O)OP(=O)(O)OCC2OC(n3c[n+](C)c4c(=O)[nH]c(N)nc43)C(O)C2O)OC1n1cnc2cncnc21 (centres unmarked) [compound 5209, m^7G(ppp)Em(ps)G(p)G] | > 90 |
| COC1C(COP(=O)(O)OP(=O)(O)OP(=O)(O)OCC2OC(n3cnc4c(N)ncnc43)C(OC)C2OP([O-])(=S)OCC2OC(n3cnc4c(=O)[nH]c(N)nc43)C(O)C2OP(=O)(O)OCC2OC(n3cnc4c(=O)[nH]c(N)nc43)C(O)C2O)OC(n2c[n+](C)c3c(=O)[nH]c(N)nc32)C1O (centres unmarked) [compound 5210, m^7G(3′OMe)(ppp)Am(ps) G(p)G] | > 90 |
| COC1C(COP(=O)(O)OP(=O)(O)OP(=O)(O)OCC2OC(n3cnc4cncnc43)C(OC)C2OP([O-])(=S)OCC2OC(n3cnc4c(=O)[nH]c(N)nc43)C(O)C2OP(=O)(O)OCC2OC(n3cnc4c(=O)[nH]c(N)nc43)C(O)C2O)OC(n2c[n+](C)c3c(=O)[nH]c(N)nc32)C1O (centres unmarked) [compound 5211, m^7G(3′OMe)(ppp)Em(ps) G(p)G] | > 90 |
